Substitutions are numbered along the chain they refer to. No constants are given. Whether binding was seen depends on the method and setting. For some of these results: Binding can be weak; no strength is given. For some of these results: Tags and fused reporters may be left off the sequences shown.
Legend:
Test in all cases: two-hybrid; mammalian two-hybrid in HeLa cells with stably integrated GAL4-TATA-LUC and stably expressed AR(A/B)-VP16; Gal4-ELK1 fusion constructs transfected; luciferase in lysates 48 h after transfection
[1] = biological target: T1, Gal4-ELK1 construct in which the FQFP motif was mutated to FQLA (human) (UniProt P19419)
T1 sequence: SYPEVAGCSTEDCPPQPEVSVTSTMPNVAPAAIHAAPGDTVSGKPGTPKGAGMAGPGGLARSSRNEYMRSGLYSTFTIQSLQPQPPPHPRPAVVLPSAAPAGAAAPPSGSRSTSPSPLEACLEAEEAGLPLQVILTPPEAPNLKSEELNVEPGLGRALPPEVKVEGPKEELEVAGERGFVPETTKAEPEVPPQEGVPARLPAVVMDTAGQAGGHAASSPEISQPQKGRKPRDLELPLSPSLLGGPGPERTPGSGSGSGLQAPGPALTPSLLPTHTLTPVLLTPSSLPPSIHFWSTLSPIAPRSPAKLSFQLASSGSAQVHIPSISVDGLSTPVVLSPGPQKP

[2] = biological target: T2, Gal4-ELK1 construct with both lesions (FQFP to FQLA and deletion of the D-box region 308–321) (human) (UniProt P19419)
T2 sequence: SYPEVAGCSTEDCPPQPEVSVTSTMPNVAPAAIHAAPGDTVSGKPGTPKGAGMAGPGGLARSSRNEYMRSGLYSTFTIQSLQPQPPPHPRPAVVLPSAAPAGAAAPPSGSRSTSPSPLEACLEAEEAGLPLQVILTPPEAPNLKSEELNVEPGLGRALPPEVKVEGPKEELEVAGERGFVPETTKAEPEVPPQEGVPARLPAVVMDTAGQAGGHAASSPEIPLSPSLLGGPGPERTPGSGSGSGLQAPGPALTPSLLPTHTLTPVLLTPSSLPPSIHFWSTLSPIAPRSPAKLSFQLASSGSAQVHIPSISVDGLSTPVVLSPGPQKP

[3] = biological target: T3, Gal4-ELK1 with deletion of residues 331–340 (human) (UniProt P19419)
T3 sequence: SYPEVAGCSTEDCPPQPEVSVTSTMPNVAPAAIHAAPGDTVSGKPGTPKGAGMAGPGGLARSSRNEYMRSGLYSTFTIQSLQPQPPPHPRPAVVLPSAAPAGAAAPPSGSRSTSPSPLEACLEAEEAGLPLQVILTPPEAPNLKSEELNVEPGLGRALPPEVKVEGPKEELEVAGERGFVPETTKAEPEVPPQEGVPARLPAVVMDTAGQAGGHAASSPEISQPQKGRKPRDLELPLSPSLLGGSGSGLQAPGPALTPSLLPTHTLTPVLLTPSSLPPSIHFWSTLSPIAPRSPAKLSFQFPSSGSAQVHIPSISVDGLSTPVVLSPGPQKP

[4] = biological target: T4, Gal4-ELK1 with deletion of residues 341–350 (human) (UniProt P19419)
T4 sequence: T3 sequence with S245P, S247P, G248E, L249R, Q250T, A251P, P252G, G253S, P254G

[5] = biological target: T5, Gal4-ELK1 with internal deletion 351–371 (human) (UniProt P19419)
T5 sequence: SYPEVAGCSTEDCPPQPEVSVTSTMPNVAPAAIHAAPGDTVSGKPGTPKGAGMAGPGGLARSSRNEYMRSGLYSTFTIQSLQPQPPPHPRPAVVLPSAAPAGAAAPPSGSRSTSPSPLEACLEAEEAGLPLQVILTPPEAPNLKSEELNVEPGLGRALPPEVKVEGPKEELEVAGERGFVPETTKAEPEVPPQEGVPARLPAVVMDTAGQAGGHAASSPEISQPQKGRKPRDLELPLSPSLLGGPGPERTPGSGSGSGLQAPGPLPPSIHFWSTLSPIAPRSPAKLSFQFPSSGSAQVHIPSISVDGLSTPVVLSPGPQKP

[6] = biological target: T6, Gal4-ELK1 construct in which the D-box region (ELK1 residues 308–321) was deleted (human) (UniProt P19419)
T6 sequence: T2 sequence with L297F, A298P

[7] = biological target: T7, Gal4-ELK1(87–428) fusion protein (human) (UniProt P19419)
T7 sequence: T1 sequence with L311F, A312P

binding [1]: no binding
binding [2]: no binding
binding [3]: binds
binding [4]: binds
binding [5]: binds
binding [6]: no binding
binding [7]: binds
Substance: AR(A/B)-VP16 fusion protein (AR A/B domain fused to the VP16 transactivation domain) (human) (domain or fragment)

From article PMC5207070, “The Amino-terminal Domain of the Androgen Receptor Co-opts Extracellular Signal-regulated Kinase (ERK) Docking Sites in ELK1 Protein to Induce Sustained Gene Activation That Supports Prostate Cancer Cell Growth*^([image sbox.jpg])” (The Journal of Biological Chemistry, 2016)
